Measured values from publication PMC12040169 (PLOS Biology, 2025).
The list shows a part of the results.

tested on: T1, CTL2-GFP (C. trachomatis L2/434/Bu, GFP-expressing); set-up: species or system HeLa; Intracellular C. trachomatis growth in HeLa cells, bulk GFP fluorescence relative to DMSO; conditions: bulk GFP, single well; 28.5 h, 10 µM; inhibitor
T1 construct: L2/434/Bu, GFP-expressing

Point of comparison: `C1=CC2CC1CC2CN1CCC(N(CCc2ccccc2)Cc2ccccc2)CC1` (stereo not drawn) [CBK264613G], “% of control remaining” value 100%. Against it:
- O=C(O)C1CC=CCC1C(=O)Nc1ccc(CN2CCOCC2)cc1 (stereo not drawn) [CBK299786] — lower, 99.3001%
- CNC(=O)CSc1nnc(COc2cccc3ccccc23)n1-c1ccccc1 [CBK266043] — higher, 165.97%
- Cc1cccc(Cn2c(=O)c3cnc(-c4ccncc4)nc3n(C)c2=O)c1 [CBK288593] — higher, 120.192%
- O=c1c2c3c(sc2ncn1CC(O)COc1ccc(F)cc1)CCC3 (stereo not drawn) [CBK295191] — higher, 127.191%
- O=c1[nH]c2ncc(-c3ccco3)nc2n1CCc1cccnc1 [CBK064494] — higher, 162.645%
- COc1ccccc1Cc1cccc(C2CCCN2C(=O)CCc2ccccc2)n1 (stereo not drawn) [CBK286229] — lower, 76.5908%
- Cc1c(C(=O)Nc2cccc(C(F)(F)F)c2)sc2nc(-c3ccccc3)cn12 [CBK294408] — higher, 169.136%
- CC1(C)CC(=O)C2=C(C1)c1c(ccc3ccccc13)NC2c1ccc(-c2ccc(O)c(C(=O)O)c2)o1 (stereo not drawn) [CBK261823] — lower, 76.6137%
- C[C@@H](Cn1nnc2ccccc21)NC(=O)c1cccs1 [CBK284322] — higher, 115.6%
- CCOC(=O)c1cccc(NS(=O)(=O)c2ccc(-c3ccccc3)cc2)c1 [CBK034341] — higher, 111.631%
- CC(=O)Nc1ccc(N(CC(O)Cn2c3ccccc3c3ccccc32)S(C)(=O)=O)cc1 (stereo not drawn) [CBK264352] — higher, 129.782%
- CC(C)CCN[C@H]1CO[C@H]2[C@@H]1OC[C@@H]2n1nnnc1-c1ccccc1 [CBK289537] — higher, 121.538%
- O=C(Cc1ccc(F)cc1)N1CCC(n2cnc3cccnc32)CC1 [CBK283574] — lower, 90.3087%
- c1ccc2nc(N3CCCC3)c(Sc3nc[nH]n3)nc2c1 [CBK115265] — higher, 133.712%
- CC(C)n1c(=O)oc2cc(S(=O)(=O)NC(c3ccccc3)c3ccccc3)ccc21 [CBK286350] — lower, 73.0261%
- OC(CN1CCC(O)(c2ccccc2F)CC1)c1ccc(Cl)cc1 (stereo not drawn) [CBK283312] — higher, 130.092%
- Cc1[nH]c2ccccc2c1/C=N/c1ccc(/N=C/c2c(C)[nH]c3ccccc23)cc1 [CBK261226] — the same, 100%
- COCC(O)CN(C)C(=O)c1ccc(Oc2cccc(Br)c2)nc1 (stereo not drawn) [CBK304229] — lower, 74.86%
- O=C1CC(c2ccco2)CC(=O)C1=CNCCN1CCN(C(=O)Nc2ccc(Cl)cc2)CC1 (stereo not drawn) [CBK264743] — the same, 100%
- O=S(=O)(Nc1nnn[nH]1)c1ccc(-c2ccccc2)cc1 [CBK062381] — the same, 100%
- Cc1nn(CC(=O)N2CCCCCC2)c(=O)c2cc3occc3n12 [CBK283624] — lower, 89.0267%
- Cn1ncc(N2CCC(CNC(=O)c3ccccc3Cl)C2)cc1=O (stereo not drawn) [CBK306747] — higher, 118.628%
- CCc1nnc2ccc(NCc3ccccc3)nn12 [CBK287888] — lower, 69.3418%
- CCOC(=O)CCCNC(=O)N1CCCC(C(=O)O)C1 (stereo not drawn) [CBK161374] — lower, 93.0895%
- c1cnc(-c2ccc3c(c2)OCO3)c(OC2CCCCC2)n1 [CBK106706] — the same, 100%
- CC(C)(C)C1=CC2=NC3(CCCCC3)[C@@H]3C[C@@H](O)[C@@H](O)[C@@H]3N2O1 [CBK303235] — higher, 133.167%
- O=C(c1ccccc1)N1C[C@H](c2ccsc2)[C@H]2CN(Cc3cccs3)CC[C@H]21 [CBK285623] — higher, 100.338%
- CN(Cc1ccc2c(c1)OCO2)C(=O)c1cnn2c(-c3ccccc3)ccnc12 [CBK298276] — higher, 137.319%
- Cc1cc(C)c(C)c(S(=O)(=O)NCc2ccc(C(=O)Nc3ccncc3)cc2)c1C [CBK267193] — lower, 90.0126%
- CC(=O)NCCNC(=O)c1ccc(-c2cnc(OCC3CCN(C(=O)OC(C)(C)C)CC3)nc2)cn1 [CBK170023] — higher, 107.881%
- COc1ccc(N(CCC#N)S(=O)(=O)c2cccc3nsnc23)cc1 [CBK025851] — lower, 78.4601%
- O=C(O)/C=C/C(=O)Nc1ccccc1Br [CBK086488] — higher, 111.365%
- O=C(CN1CCCCCC1=O)NCC(CO)Cc1ccsc1 (stereo not drawn) [CBK306763] — higher, 103.985%
- Cc1cc(-c2cn3cc(C(=O)N(C)CC(C)O)nc3c(=O)n2C)c(C)o1 (stereo not drawn) [CBK307154] — higher, 137.794%
- CCOC(=O)N1CCCN(C(=O)OCC)CC1 [CBK034324] — higher, 111.873%
- N#Cc1cccnc1N1CCC(NC(=O)c2ccc3nccn3c2)CC1 [CBK306566] — lower, 85.6608%
- O=C(Cc1ccccc1F)N1CCC(c2cc3cccnc3[nH]2)CC1 [CBK285035] — higher, 105.788%
- COc1ccccc1-c1ccc(Nc2ccccc2)nc1 [CBK036909] — higher, 139.251%
- Cc1cccc(CN2CC[C@H]3[C@@H](C2)[C@H](c2ccsc2)CN3C(=O)c2ccc(F)cc2)c1 [CBK285639] — higher, 102.422%
- CC(NC(=O)c1ncoc1-c1ccc(F)cc1)c1cccnc1 (stereo not drawn) [CBK282358] — higher, 105.404%
- CC(Sc1ccc(Br)c2cccc(C(=O)O)c12)C(=O)O (stereo not drawn) [CBK266226] — higher, 129.003%
- CC(=O)Nc1ccc(OC(=O)c2ccc(Br)o2)cc1 [CBK293917] — higher, 102.134%
- CCN(Cc1cnn(C)c1)S(=O)(=O)c1ccc2c(c1)CCCC(=O)N2 [CBK304782] — higher, 131.696%
- O=C1CCC(=O)N1CCOc1nccnc1-c1ccc2c(c1)OCO2 [CBK106698] — higher, 152.907%
- O=[N+]([O-])c1cccc(Cn2c(CO)nc3ccccc32)c1 [CBK297515] — higher, 119.929%
- Cc1ccc(S(=O)(=O)Nc2ccc(C(C)C)cc2)cc1C(=O)O [CBK297766] — higher, 149.936%
- CC(CCN(CCN)C(=O)N1CCC(CNS(C)(=O)=O)(c2ccccc2)CC1)c1ccccc1 (stereo not drawn) [CBK002335C] — higher, 129.565%
- Cc1ccc(C(=O)NC2CCCC2)cc1[N+](=O)[O-] [CBK001993] — lower, 49.5788%
- Cn1c(CSCc2ccccc2F)nnc1SCC(=O)c1ccc(Br)cc1 [CBK269143] — higher, 126.716%
- NC(=O)C1CCN(C(=O)CCCSc2nc(-c3ccco3)cc(C(F)(F)F)n2)CC1 [CBK268844] — lower, 91.7796%
- CC(C)CN1C(=O)c2ccc(C(=O)NCc3ccc(C(=O)O)cc3)cc2C1=O [CBK286898] — higher, 110.887%
- FC(F)(F)c1ccnc(SCc2ccc(Cl)c(Cl)c2)n1 [CBK103723] — lower, 92.1034%
- O=C(Nc1ncn(CC(=O)N2CCCCCC2)n1)c1cccc(F)c1 [CBK304904] — higher, 115.346%
- COc1ccc(NC(=O)Cc2csc(NC(C)=O)n2)cc1 [CBK287650] — higher, 115.845%
- COC(=O)c1sc2ncccc2c1NS(=O)(=O)Cc1ccccc1[N+](=O)[O-] [CBK049974] — higher, 100.464%
- c1cc2c(cc1CN1CCC(Oc3cncc(OCCN4CCOCC4)n3)C1)OCO2 (stereo not drawn) [CBK084487] — higher, 120.123%
- Cc1cn([C@H]2C[C@@H](O)[C@@H](CO)O2)c(=O)nc1-n1cncn1 [CBK201235] — lower, 80.1459%
- O=C(NCCO)c1cccc(-c2cc(N3CCCC3CO)n3nccc3n2)c1 (stereo not drawn) [CBK037187] — higher, 149.141%
- CCc1nc2cc(NC(=O)Cn3cc(C)cn3)ccc2n1CC [CBK281608] — higher, 142.791%
- O=C(COc1ccc2ccccc2c1)OCC(=O)c1ccc([N+](=O)[O-])cc1 [CBK261586] — higher, 121.446%
- C[C@]12CN(Cc3cccs3)C[C@H]1C(=O)Nc1ccccc1C(=O)N2 [CBK284705] — higher, 178.676%
- Cc1ccn(CCNC(=O)CSc2nccc3ccccc23)n1 [CBK282678] — higher, 100.771%
- CS(=O)(=O)NCC1(c2ccccc2)CCN(S(=O)(=O)c2c(Cl)cccc2Cl)CC1 [CBK051633] — higher, 145.022%
- CCOC(=O)c1c(NC(=O)CSc2nc[nH]n2)sc2c1CCC2 [CBK267225] — higher, 141.632%
- Cc1ccc(NC(=O)c2cc(NC(=O)C3C4C=CC(C4)C3C(=O)O)ccc2N2CCCCC2)cc1 (stereo not drawn) [CBK265350] — higher, 119.786%
- C=CCN1C(=O)CC2(C1=O)C(=O)N(CCCn1c(=O)c3c(ncn3C)n(C)c1=O)c1ccc(OC)cc12 (stereo not drawn) [CBK075701] — higher, 147.813%
- COc1ccc(CN2CCOCC2)cc1Br [CBK027346] — higher, 108.506%
- Oc1noc(O)c1-c1ncc(C(F)(F)F)cc1Cl [CBK007439] — higher, 150.794%
- O=C(Cc1c[nH]c2ccccc12)N1CCC2(CCN(C(=O)c3cccnc3)C2)C1 (stereo not drawn) [CBK131453] — higher, 118.608%
- C=CCNC(=O)CCn1c(C(C)C)cc2cccnc21 [CBK283289] — lower, 92.0257%
- CCC(C)(C)c1ccc(S(=O)(=O)N(CCC#N)Cc2cccnc2)cc1 [CBK043960] — higher, 119.65%
- CCCn1c(SCc2csc(COc3ccc(Cl)cc3)n2)n[nH]c1=O [CBK295140] — higher, 145.046%
- COc1ccc(C(=O)N2CCC3(CCCN(Cc4nc5ccccc5[nH]4)C3)C2)cc1OC (stereo not drawn) [CBK132847] — the same, 100%
- CCOc1ccc(S(=O)(=O)N2CCCN(Cc3c[nH]c(C)n3)CC2)c2cccnc12 [CBK063031] — lower, 79.8064%
- c1ccc(SCCCSc2ccccn2)cc1 [CBK021704] — higher, 155.223%
- COc1cc(C)nc(NCc2cnn(C)c2C)n1 [CBK306277] — higher, 171.903%
- COCC(=O)N[C@H]1C[C@@H](Cc2cc(C(C)(C)C)on2)C1(C)C [CBK289244] — higher, 120.419%
